# From PubChem BioAssay AID1259354 (Paczesny and Yang Labs, IUPUI and University of Michigan, 2018)
# Amino acid sequences for entries named in this document (tags omitted). A change or cut given only in a name is not applied to a line headed by its entry.
# UniProt Q01638: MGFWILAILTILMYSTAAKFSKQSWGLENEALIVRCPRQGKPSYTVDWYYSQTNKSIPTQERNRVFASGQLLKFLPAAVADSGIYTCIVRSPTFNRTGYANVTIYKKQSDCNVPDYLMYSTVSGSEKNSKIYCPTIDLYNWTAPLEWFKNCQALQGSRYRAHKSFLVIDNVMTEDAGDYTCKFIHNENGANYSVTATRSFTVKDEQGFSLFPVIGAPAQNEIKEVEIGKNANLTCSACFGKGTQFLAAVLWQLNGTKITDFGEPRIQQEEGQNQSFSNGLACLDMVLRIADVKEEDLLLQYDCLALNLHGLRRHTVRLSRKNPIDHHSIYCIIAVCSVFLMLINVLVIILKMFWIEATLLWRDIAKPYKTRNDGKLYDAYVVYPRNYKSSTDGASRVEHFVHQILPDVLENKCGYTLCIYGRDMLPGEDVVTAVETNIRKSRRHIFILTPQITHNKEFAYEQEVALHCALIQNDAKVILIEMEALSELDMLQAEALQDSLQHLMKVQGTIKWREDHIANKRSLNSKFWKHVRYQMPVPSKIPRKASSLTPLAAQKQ
# Screen size: about 78,000 compounds; about 1,800 (2.3%) were called active. Inconclusive results, whose numbers are uncertain, are shown with a selection of clear calls. Rule as the data show it: active = inhibition above about 30%; inconclusive = mostly about 10% to 28%; inactive = weaker than that.
# Target: Interleukin-1 receptor-like 1 (Homo sapiens) (UniProt Q01638)
# Assay: blocks human ST2 binding to IL-33, primary screen, biochemical, AlphaLISA (AID 1259354)
# Details: AlphaLISA ST2-Fc/biotin-IL-33 interaction, 1 h; at 17 µM, active compounds read high
row,SMILES,inhibition
1,CN(C)c1ccc(/C=C/c2nc3ccccc3c(=O)n2CCCO)cc1,inactive
2,CN1C[C@@H](NC(=O)c2ccc(C#N)cc2)C[C@H]1c1nc(-c2ccc(F)cc2)no1,inconclusive: 17%
3,Cc1ccoc1C(=O)N(Cc1ccccc1)CC(C)CO (stereo unspecified),inconclusive: 13%
4,O=C(Nc1cccc(F)c1)N1Cc2[nH]cnc2C[C@H]1c1nc(-c2ccc(F)c(Cl)c2)no1,inconclusive: 12%
5,COc1ccc([N+](=O)[O-])cc1NC(=O)c1ccc(Br)o1,inconclusive: 19%
6,Cc1nnc(Sc2cc(C(=O)NCCN3CCCCCC3)c3ccccc3n2)s1,inconclusive: 27%
7,CCOC(=O)N1CCN(C(=O)CC2(c3ccccc3C)CC(=O)N(Cc3ccccc3)C2=O)CC1 (stereo unspecified),inconclusive: 15%
8,CSc1ccc(CN(C(=O)c2ccc(C(C)=O)s2)C2CC2)cc1,inconclusive: 15%
9,Cc1nc2c(c(N(C)C)n1)CCN(C(=O)CN1C(=O)NC(=O)C1(C)C)C2,inconclusive: 12%
10,COc1ccc(N=Cc2cccc([N+](=O)[O-])c2)cc1Cl,inconclusive: 20%
11,CCOC(=O)N1CCN(C2CCCN(C(=O)c3ccc(O)cn3)C2)CC1 (stereo unspecified),inconclusive: 17%
12,CCc1cc(N2CCCN(C(=O)C3CC3)CC2)nc(N(C)C)n1,inconclusive: 20%
13,O=S(=O)(NCC1(O)CCCNCC1)c1ccc(Oc2ccccc2)cc1 (stereo unspecified),inactive
14,COc1cc2c(cc1C1CC(=O)Nc3[nH]ncc31)CCC2 (stereo unspecified),inconclusive: 14%
15,COc1cc(-n2cnc(C(=O)O)c2)ccc1NC(C)=O,inactive
16,CC[N+](C)(C)Cc1ccccc1Br,inactive
17,c1cc2occc2c(-c2cc(NC3CCNCC3)nc3[nH]ccc23)n1,inconclusive: 28%
18,CC1(C)CC(=O)c2c(oc3cc(O)c(O)cc23)C1,inconclusive: 18%
19,O=C(NC1CC1)C1CCC(=O)N1Cc1ccc(F)cc1 (stereo unspecified),inactive
20,COc1ccc(OC)c(NC(=O)c2cc3c(=O)n4ccccc4nc3s2)c1,inconclusive: 10%
21,Cc1noc(C)c1-c1ccc(Cl)c(Cl)c1,active: 49%
22,O=[N+]([O-])c1ccc(C=Nc2nonc2N=Cc2ccc([N+](=O)[O-])cc2)cc1,inconclusive: 12%
23,Fc1ccc(CN2CCN(Cc3ccc4c(c3)OCO4)CC2)cc1F,inconclusive: 18%
24,CCOc1ccc(C2CC(=O)N2C2(C(=O)Nc3ccc(C)cc3)CCCCC2)cc1OC (stereo unspecified),inconclusive: 12%
25,C=CCc1cccc2cc(C(=O)NCCOC34CC5CC(CC(C5)C3)C4)c(=O)oc12,inconclusive: 12%
26,CCCc1nc(C)c(CNC(=O)C2CCOC2)s1 (stereo unspecified),inconclusive: 10%

# A section from further up, for reference:
row,SMILES,inhibition
19,O=C(NC1CC1)C1CCC(=O)N1Cc1ccc(F)cc1 (stereo unspecified),inactive
20,COc1ccc(OC)c(NC(=O)c2cc3c(=O)n4ccccc4nc3s2)c1,inconclusive: 10%
